Data taken from paper PMC7057672.

By UniProt entry, the sequences of proteins in these tests, tags left out. Where a name states a change or a piece, a line headed by the entry shows the natural chain unless it says otherwise.
UniProt Q07133: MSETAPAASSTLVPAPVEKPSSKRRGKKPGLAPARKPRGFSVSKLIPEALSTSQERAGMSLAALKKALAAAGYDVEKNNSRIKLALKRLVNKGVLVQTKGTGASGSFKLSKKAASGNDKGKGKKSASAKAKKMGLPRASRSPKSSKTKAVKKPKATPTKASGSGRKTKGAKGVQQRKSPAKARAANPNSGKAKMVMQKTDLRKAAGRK
UniProt O08638: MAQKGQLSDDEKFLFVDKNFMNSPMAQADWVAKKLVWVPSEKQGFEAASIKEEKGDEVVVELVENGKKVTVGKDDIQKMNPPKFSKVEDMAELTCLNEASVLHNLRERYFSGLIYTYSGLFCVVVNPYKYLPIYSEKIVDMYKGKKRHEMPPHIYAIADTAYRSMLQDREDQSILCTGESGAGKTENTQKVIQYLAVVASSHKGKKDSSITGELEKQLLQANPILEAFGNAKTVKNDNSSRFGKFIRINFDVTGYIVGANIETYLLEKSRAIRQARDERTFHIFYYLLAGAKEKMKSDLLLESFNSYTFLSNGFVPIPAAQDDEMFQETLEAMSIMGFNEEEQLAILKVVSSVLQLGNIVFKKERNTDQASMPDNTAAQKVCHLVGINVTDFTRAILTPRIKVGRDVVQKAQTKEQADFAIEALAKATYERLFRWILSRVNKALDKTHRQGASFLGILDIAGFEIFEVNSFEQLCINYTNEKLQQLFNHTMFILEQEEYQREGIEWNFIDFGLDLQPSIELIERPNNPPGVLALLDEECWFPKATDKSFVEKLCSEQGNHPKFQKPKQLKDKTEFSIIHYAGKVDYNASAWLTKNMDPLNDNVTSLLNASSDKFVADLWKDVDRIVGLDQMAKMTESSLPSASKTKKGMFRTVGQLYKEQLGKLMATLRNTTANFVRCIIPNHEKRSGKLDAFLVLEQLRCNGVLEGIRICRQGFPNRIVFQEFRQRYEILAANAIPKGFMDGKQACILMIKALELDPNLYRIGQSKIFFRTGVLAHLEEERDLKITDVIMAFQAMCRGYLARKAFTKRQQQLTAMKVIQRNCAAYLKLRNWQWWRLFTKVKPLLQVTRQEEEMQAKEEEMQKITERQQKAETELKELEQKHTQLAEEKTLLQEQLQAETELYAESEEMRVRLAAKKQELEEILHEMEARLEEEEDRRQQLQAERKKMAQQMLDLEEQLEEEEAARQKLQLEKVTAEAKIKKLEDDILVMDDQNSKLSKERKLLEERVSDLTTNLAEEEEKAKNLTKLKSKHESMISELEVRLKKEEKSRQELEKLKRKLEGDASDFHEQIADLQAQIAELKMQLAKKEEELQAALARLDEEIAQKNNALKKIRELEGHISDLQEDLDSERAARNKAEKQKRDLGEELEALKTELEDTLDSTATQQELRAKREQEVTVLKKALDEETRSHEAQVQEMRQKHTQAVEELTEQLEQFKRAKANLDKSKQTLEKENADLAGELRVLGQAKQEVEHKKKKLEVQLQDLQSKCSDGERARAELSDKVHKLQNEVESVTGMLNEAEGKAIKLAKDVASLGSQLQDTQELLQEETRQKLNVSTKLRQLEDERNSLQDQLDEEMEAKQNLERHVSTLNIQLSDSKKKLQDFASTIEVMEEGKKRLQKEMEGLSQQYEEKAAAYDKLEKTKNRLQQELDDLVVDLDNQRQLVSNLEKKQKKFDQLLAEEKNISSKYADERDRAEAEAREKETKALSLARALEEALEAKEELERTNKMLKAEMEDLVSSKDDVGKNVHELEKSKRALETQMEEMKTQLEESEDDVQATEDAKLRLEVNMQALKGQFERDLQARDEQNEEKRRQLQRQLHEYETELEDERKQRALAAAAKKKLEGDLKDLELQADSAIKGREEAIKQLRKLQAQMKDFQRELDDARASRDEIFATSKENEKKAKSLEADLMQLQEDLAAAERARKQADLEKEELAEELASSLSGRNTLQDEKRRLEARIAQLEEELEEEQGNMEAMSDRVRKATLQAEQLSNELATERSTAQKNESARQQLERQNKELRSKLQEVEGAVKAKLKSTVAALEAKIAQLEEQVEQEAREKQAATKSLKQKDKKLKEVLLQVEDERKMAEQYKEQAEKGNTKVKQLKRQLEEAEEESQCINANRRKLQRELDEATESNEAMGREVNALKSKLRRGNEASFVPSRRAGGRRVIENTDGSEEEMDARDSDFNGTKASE
UniProt Q9JMB7: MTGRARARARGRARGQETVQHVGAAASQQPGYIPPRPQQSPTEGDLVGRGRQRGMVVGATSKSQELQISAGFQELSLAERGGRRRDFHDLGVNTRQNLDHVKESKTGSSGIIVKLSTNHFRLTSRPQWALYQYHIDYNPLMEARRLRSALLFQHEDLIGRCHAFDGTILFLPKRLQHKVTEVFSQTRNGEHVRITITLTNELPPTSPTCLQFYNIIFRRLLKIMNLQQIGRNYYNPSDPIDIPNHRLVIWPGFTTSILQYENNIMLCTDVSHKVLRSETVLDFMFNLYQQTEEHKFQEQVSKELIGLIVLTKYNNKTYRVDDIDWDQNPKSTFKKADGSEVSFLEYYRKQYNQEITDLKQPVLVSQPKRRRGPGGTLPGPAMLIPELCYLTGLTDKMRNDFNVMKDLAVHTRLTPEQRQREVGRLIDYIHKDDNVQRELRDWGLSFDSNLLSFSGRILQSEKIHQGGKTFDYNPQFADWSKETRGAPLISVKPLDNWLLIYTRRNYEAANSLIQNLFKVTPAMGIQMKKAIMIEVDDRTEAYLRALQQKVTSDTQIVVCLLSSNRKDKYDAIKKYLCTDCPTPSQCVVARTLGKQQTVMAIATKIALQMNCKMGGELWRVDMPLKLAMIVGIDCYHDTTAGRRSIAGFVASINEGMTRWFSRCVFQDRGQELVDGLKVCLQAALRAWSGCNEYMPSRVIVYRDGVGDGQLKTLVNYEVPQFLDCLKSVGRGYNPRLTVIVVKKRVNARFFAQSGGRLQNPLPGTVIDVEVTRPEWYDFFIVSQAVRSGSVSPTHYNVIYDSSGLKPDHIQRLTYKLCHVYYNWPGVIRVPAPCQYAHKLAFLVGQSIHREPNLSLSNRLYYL
UniProt Q61937: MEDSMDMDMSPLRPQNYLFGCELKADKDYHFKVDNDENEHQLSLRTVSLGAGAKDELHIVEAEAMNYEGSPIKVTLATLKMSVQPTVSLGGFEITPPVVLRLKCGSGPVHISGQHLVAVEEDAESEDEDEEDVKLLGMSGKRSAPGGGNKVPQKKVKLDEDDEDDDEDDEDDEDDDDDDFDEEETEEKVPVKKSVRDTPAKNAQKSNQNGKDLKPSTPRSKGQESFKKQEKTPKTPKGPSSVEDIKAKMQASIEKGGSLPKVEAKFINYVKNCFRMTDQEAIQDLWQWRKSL
UniProt E9Q7G0: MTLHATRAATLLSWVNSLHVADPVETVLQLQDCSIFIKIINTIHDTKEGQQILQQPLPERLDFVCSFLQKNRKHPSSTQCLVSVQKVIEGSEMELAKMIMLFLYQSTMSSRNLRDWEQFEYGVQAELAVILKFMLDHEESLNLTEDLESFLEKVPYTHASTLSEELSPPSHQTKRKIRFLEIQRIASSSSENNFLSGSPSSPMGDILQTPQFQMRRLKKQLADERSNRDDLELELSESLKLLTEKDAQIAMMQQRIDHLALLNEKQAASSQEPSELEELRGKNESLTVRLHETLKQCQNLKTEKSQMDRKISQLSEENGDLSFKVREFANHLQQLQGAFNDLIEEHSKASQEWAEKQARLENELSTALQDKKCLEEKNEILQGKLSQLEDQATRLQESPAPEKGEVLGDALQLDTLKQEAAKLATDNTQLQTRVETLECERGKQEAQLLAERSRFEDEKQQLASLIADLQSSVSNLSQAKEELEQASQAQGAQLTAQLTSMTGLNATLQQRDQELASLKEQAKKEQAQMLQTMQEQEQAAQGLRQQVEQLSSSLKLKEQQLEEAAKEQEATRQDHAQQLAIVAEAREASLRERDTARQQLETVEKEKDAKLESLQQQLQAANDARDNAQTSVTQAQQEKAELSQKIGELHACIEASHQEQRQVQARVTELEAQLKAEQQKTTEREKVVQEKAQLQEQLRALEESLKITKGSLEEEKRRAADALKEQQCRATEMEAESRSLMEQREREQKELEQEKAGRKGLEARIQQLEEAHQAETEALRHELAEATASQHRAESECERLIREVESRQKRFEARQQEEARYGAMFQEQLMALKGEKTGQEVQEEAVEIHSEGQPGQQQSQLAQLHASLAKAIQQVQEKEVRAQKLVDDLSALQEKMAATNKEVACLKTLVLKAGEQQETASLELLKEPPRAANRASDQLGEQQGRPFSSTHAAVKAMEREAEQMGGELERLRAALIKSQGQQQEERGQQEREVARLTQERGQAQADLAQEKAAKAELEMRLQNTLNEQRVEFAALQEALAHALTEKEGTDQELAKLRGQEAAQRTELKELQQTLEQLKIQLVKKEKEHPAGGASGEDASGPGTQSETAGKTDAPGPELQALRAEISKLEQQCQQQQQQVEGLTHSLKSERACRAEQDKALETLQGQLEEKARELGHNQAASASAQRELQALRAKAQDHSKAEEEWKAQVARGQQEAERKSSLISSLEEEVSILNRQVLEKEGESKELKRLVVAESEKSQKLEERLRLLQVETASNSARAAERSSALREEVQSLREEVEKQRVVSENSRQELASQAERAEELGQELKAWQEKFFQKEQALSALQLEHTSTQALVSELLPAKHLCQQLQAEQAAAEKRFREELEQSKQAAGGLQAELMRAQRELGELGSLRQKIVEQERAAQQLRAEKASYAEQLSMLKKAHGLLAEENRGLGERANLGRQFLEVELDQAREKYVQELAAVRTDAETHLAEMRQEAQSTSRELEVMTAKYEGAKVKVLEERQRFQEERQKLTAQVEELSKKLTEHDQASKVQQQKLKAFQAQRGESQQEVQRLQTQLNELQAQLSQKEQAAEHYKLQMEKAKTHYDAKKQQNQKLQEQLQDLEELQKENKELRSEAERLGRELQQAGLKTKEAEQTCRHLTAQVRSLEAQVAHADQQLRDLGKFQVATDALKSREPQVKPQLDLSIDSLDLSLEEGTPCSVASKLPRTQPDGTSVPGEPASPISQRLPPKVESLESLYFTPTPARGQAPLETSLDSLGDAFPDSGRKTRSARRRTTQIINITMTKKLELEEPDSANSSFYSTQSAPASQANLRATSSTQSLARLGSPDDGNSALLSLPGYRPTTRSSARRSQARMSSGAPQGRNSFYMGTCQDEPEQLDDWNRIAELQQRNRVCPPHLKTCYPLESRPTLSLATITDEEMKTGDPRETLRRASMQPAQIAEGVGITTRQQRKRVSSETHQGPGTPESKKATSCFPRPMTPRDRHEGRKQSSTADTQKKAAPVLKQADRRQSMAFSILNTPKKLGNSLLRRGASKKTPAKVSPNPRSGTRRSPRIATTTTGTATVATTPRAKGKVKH
UniProt P17156: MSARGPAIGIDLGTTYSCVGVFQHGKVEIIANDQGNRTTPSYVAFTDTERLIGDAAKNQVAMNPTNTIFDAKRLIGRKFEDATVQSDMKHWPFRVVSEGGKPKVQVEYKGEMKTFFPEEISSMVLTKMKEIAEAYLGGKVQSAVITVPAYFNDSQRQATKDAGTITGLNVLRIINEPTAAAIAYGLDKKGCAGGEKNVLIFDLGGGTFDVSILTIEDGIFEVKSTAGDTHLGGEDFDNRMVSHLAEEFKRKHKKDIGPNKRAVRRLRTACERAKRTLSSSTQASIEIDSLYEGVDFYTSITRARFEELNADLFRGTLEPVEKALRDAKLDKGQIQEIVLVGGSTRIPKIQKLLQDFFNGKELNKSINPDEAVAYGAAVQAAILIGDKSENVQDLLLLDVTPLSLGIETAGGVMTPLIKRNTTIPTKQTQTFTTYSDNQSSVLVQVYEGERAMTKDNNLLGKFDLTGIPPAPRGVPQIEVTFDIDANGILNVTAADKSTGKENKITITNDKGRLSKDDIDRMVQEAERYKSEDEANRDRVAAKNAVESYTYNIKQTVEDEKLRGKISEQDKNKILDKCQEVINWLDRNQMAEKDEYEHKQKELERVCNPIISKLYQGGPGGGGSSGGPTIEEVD

B1: MAEL (protein, UniProt Q8BVN9 1-434)
chain: MPNRRASRNAYYFFVQEKIPELRRRGLPVARVADAIPYCSADWALLREDEKEKYSEMAREWRAAQGKDSGPSEKQKLVSTPLRRPGMLVPKPSISPPDMSNLSIKSDQALLGGIFYFLNIFSHGELPPHCEQRFLPCEIGCVKYSLQEGIMADFHSFIHPGEIPRGFRFHCQAASDSSHKIPISNFEFGHDQATVLQNLYKFIHPNPGNWPPIYCKSDDRARVNWCLKRMERASEIRQDLELLTVEDLVVGIYQQKFLKEPSKTWVRSLLDVAMWDYSSNTRCKWHEENDILFCALAVCKKIAYCISNSLATLFGIQLTGAHVPLQDYEASNSVTPKMVVLDAGRYQKLRVESPGFCHFNSYNQEQRSNTSTGYYPSGVKISGPHSSVRGRGITRLLESISNSSNNIHRFSSCETSLSPYTPQKDGYKPFSSFS
B2: Tdkrh (protein, UniProt Q80VL1 1-560)
chain: MSTERTSWTNLSTIQKIALGLGIPASATVAYILYRRYRESREERLTFVGEDDIEIEMRVPQEAVKLIIGRQGANIKQLRKQTGARIDVDTEDVGDERVLLISGFPVQVCKAKAAIHQILTENTPVFEQLSVPQRSVGRIIGRGGETIRSICKASGAKITCDKESEGTLLLSRLIKISGTQKEVAAAKHLILEKVSEDEELRKRIAHSAETRVPRKQPISVRREEVTEPGGAGEAALWKNTNSSMGPATPLEVPLRKGGGDMVVVGPKEGSWEKPNDDSFQNSGAQSSPETSMFEIPSPDFSFHADEYLEVYVSASEHPNHFWIQIIGSRSLQLDKLVSEMTQHYENSLPEDLTVHVGDIVAAPLSTNGSWYRARVLGTLENGNLDLYFVDFGDNGDCALKDLRALRSDFLSLPFQAIECSLARIAPTGEEWEEEALDEFDRLTHCADWKPLVAKISSYVQTGISTWPKIYLYDTSDEKKLDIGLELVRKGYAVELPEDMEENRTVPNMLKDMATETDDSLASILTETKKSPEEMPHTLSCLSLSEAASMSGDDNLEDDLF
B3: Uhrf1 (protein, UniProt Q8VDF2 1-782)
chain: MWIQVRTMDGKETHTVNSLSRLTKVQELRKKIEEVFHVEPQLQRLFYRGKQMEDGHTLFDYDVRLNDTIQLLVRQSLALPLSTKERDSELSDSDSGYGVGHSESDKSSTHGEGAAEADDKTVWEDTDLGLYKVNEYVDVRDNIFGAWFEAQVVQVQKRALSEDEPCSSSAVKTSEDDIMYHVKYDDYPEHGVDIVKAKNVRARARTVIPWENLEVGQVVMANYNVDYPRKRGFWYDVEICRKRQTRTARELYGNIRLLNDSQLNNCRIMFVDEVLMIELPKERRPLIASPSQPPPALRNTGKSGPSCRFCKDDENKPCRKCACHVCGGREAPEKQLLCDECDMAFHLYCLKPPLTSVPPEPEWYCPSCRTDSSEVVQAGEKLKESKKKAKMASATSSSRRDWGKGMACVGRTTECTIVPANHFGPIPGVPVGTMWRFRVQVSESGVHRPHVAGIHGRSNDGAYSLVLAGGYEDDVDNGNYFTYTGSGGRDLSGNKRTAGQSSDQKLTNNNRALALNCHSPINEKGAEAEDWRQGKPVRVVRNMKGGKHSKYAPAEGNRYDGIYKVVKYWPERGKSGFLVWRYLLRRDDTEPEPWTREGKDRTRQLGLTMQYPEGYLEALANKEKSRKRPAKALEQGPSSSKTGKSKQKSTGPTLSSPRASKKSKLEPYTLSEQQANLIKEDKGNAKLWDDVLTSLQDGPYQIFLSKVKEAFQCICCQELVFRPVTTVCQHNVCKDCLDRSFRAQVFSCPACRFELDHSSPTRVNQPLQTILNQLFPGYGSGR

biological target: linker histone variant H1t (mouse (endogenous in P20 mouse testicular cells)) (UniProt Q07133); test: affinity purification with mass spectrometry; H1t ChIP/IP from P20 mouse testicular chromatin, eluted with the elution buffer of the Pierce co-IP kit, resolved on 15% SDS gel; proteins enriched over the non-specific rabbit IgG fraction

binding, binds:
Myh11 (from UniProt O08638 1-1972)
Piwil1 (from UniProt Q9JMB7 1-862)
Npm1 (from UniProt Q61937 1-292)
Ncl (from UniProt P09405 1-707)
Myh10 (from UniProt Q61879 1-1976)
Numa1 (from UniProt E9Q7G0 1-2094)
Hspa2 (from UniProt P17156 1-633)
B1
B2
B3

No constants are given. Whether binding was seen depends on the method and setting. In cells and extracts the contact can be indirect. A yes stands for co-enrichment or nearness to the bait. Other partners may have been found.
